This is an account of results in doi:10.1101/2024.06.27.601046.

The target of test [1] is T1, TOP3A protein (human (endogenous in K-562 and LAMA-84)) (UniProt Q13472).
T1 sequence: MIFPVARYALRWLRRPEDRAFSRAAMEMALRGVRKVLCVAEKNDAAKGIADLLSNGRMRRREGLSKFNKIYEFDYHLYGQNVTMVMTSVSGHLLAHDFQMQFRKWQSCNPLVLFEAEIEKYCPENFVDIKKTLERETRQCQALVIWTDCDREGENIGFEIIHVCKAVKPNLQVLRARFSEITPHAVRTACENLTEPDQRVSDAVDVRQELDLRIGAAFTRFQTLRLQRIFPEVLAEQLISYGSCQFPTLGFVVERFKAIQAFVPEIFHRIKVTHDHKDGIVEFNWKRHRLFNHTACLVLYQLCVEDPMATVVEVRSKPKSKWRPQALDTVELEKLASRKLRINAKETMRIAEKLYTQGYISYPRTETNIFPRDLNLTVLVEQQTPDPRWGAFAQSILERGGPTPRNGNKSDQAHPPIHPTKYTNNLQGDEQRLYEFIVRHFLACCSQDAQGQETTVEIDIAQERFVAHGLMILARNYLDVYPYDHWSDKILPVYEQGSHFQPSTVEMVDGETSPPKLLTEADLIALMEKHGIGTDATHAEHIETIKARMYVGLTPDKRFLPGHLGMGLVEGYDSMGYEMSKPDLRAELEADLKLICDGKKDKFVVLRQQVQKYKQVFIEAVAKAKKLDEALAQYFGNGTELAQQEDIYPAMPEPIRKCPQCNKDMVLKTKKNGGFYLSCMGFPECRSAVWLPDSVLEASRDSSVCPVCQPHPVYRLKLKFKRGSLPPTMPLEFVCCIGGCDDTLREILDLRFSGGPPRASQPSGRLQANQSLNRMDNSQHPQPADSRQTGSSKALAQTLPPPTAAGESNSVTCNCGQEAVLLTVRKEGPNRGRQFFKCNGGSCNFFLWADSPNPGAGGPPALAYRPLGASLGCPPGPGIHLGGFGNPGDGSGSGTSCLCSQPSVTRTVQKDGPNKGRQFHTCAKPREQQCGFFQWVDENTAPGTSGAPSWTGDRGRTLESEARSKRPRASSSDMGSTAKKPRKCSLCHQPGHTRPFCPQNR
Nature of the test: co-IP.

Test [2] concerns the target T2, RMI1 protein (human (endogenous in K-562 and LAMA-84)) (UniProt Q9H9A7).
T2 sequence: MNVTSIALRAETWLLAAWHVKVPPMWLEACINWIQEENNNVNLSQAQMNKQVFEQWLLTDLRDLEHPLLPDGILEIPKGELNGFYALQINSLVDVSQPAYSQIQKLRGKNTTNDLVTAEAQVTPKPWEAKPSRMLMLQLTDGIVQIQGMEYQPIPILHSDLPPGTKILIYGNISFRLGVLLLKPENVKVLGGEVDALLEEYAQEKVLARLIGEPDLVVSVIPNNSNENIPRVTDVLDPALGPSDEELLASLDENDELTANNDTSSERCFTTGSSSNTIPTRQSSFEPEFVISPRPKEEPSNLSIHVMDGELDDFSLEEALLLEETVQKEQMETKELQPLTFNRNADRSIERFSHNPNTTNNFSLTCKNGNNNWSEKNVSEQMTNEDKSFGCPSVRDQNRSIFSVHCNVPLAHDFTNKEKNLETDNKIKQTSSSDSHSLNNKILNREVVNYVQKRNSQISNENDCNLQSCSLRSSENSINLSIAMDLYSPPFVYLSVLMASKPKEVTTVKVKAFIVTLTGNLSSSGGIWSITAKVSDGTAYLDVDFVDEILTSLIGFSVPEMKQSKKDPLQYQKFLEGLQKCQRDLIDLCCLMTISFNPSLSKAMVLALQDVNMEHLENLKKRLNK
As to the kind of experiment: co-IP.

Results are given in words; binding and its absence hold for the method and conditions named. In cells and extracts the contact can be indirect. Some entries that bind do so weakly or less than the wild type.

B1: RMI1 protein (protein, UniProt Q9H9A7 1-625)
chain: MNVTSIALRAETWLLAAWHVKVPPMWLEACINWIQEENNNVNLSQAQMNKQVFEQWLLTDLRDLEHPLLPDGILEIPKGELNGFYALQINSLVDVSQPAYSQIQKLRGKNTTNDLVTAEAQVTPKPWEAKPSRMLMLQLTDGIVQIQGMEYQPIPILHSDLPPGTKILIYGNISFRLGVLLLKPENVKVLGGEVDALLEEYAQEKVLARLIGEPDLVVSVIPNNSNENIPRVTDVLDPALGPSDEELLASLDENDELTANNDTSSERCFTTGSSSNTIPTRQSSFEPEFVISPRPKEEPSNLSIHVMDGELDDFSLEEALLLEETVQKEQMETKELQPLTFNRNADRSIERFSHNPNTTNNFSLTCKNGNNNWSEKNVSEQMTNEDKSFGCPSVRDQNRSIFSVHCNVPLAHDFTNKEKNLETDNKIKQTSSSDSHSLNNKILNREVVNYVQKRNSQISNENDCNLQSCSLRSSENSINLSIAMDLYSPPFVYLSVLMASKPKEVTTVKVKAFIVTLTGNLSSSGGIWSITAKVSDGTAYLDVDFVDEILTSLIGFSVPEMKQSKKDPLQYQKFLEGLQKCQRDLIDLCCLMTISFNPSLSKAMVLALQDVNMEHLENLKKRLNK
With B1, the binding result in test [1] is listed as “binds”.

B2: TOP3A protein (enzyme, UniProt Q13472 1-1001)
chain: MIFPVARYALRWLRRPEDRAFSRAAMEMALRGVRKVLCVAEKNDAAKGIADLLSNGRMRRREGLSKFNKIYEFDYHLYGQNVTMVMTSVSGHLLAHDFQMQFRKWQSCNPLVLFEAEIEKYCPENFVDIKKTLERETRQCQALVIWTDCDREGENIGFEIIHVCKAVKPNLQVLRARFSEITPHAVRTACENLTEPDQRVSDAVDVRQELDLRIGAAFTRFQTLRLQRIFPEVLAEQLISYGSCQFPTLGFVVERFKAIQAFVPEIFHRIKVTHDHKDGIVEFNWKRHRLFNHTACLVLYQLCVEDPMATVVEVRSKPKSKWRPQALDTVELEKLASRKLRINAKETMRIAEKLYTQGYISYPRTETNIFPRDLNLTVLVEQQTPDPRWGAFAQSILERGGPTPRNGNKSDQAHPPIHPTKYTNNLQGDEQRLYEFIVRHFLACCSQDAQGQETTVEIDIAQERFVAHGLMILARNYLDVYPYDHWSDKILPVYEQGSHFQPSTVEMVDGETSPPKLLTEADLIALMEKHGIGTDATHAEHIETIKARMYVGLTPDKRFLPGHLGMGLVEGYDSMGYEMSKPDLRAELEADLKLICDGKKDKFVVLRQQVQKYKQVFIEAVAKAKKLDEALAQYFGNGTELAQQEDIYPAMPEPIRKCPQCNKDMVLKTKKNGGFYLSCMGFPECRSAVWLPDSVLEASRDSSVCPVCQPHPVYRLKLKFKRGSLPPTMPLEFVCCIGGCDDTLREILDLRFSGGPPRASQPSGRLQANQSLNRMDNSQHPQPADSRQTGSSKALAQTLPPPTAAGESNSVTCNCGQEAVLLTVRKEGPNRGRQFFKCNGGSCNFFLWADSPNPGAGGPPALAYRPLGASLGCPPGPGIHLGGFGNPGDGSGSGTSCLCSQPSVTRTVQKDGPNKGRQFHTCAKPREQQCGFFQWVDENTAPGTSGAPSWTGDRGRTLESEARSKRPRASSSDMGSTAKKPRKCSLCHQPGHTRPFCPQNR
For B2, the binding entry in test [2] is given as “binds”.
